Among the data in article PMC12080395 are binding values, retold here.

Results are given in words; binding and its absence hold for the method and conditions named. In cells and extracts the contact can be indirect. Some entries that bind do so weakly or less than the wild type.

The target in the assay is STAT3 (endogenous, mouse heart tissue) (mouse (endogenous in heart tissue)) (UniProt P42227). The experiment in a line: co-IP; whole extracts of heart tissue of STZ/HFD-induced or db/db diabetic mice treated with or without paquinimod; STAT3 or STIP1 antibody at 4°C overnight, protein A/G magnetic beads.

Take “STIP1 (endogenous, mouse heart tissue) (from UniProt Q60864 1-543)”: the binding entry is given as “binds”.
